Patent US20200102398A1
No constants are given. Whether binding was seen depends on the method and setting. Some entries that bind do so weakly or less than the wild type.

The chains behind the UniProt entries cited, without tags or fusion partners. Where a name states a change or a piece, a line headed by the entry shows the natural chain unless it says otherwise.
UniProt Q02223: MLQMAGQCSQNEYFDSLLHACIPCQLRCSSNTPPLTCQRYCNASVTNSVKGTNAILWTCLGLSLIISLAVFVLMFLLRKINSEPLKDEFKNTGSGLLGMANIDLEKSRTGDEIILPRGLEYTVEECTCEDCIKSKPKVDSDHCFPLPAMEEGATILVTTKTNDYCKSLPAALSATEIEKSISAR

Tests used:
[1] = molecular target: soluble BCMA (sBCMA) (human) (UniProt Q02223); assay: Octet sandwich assay: Ther-Ab2 on anti-huFc sensor, BCMA, then rabbit antibody
[2] = molecular target: soluble BCMA (sBCMA) (human) (UniProt Q02223); assay: Octet sandwich assay: capture antibody, +/- BCMA, Ther-Ab2, detection antibody
[3] = molecular target: soluble BCMA (sBCMA) (human) (UniProt Q02223); assay: Octet sandwich: anti-huFc sensor loaded with Ther-Ab2, then BCMA, baseline, then sBCMA-mAb1 as second antibody (Example 2a)
[4] = molecular target: soluble BCMA (sBCMA) (human) (UniProt Q02223); assay: Octet sandwich: sBCMA-mAb1 captured by B-goat anti-rabbit Fc on SA sensor, BCMA offered 1:1 with Ther-Ab2 or irrelevant bispecific (Example 2c)
[5] = molecular target: soluble BCMA (sBCMA) (human) (UniProt Q02223); assay: Biacore 3000 (SPR), mAb captured by goat anti-rabbit IgG Fc, sBCMA as analyte at 9.4-600 nM (Example 3); concentrations not labelled on the sheet
[6] = molecular target: soluble BCMA (sBCMA) (human) (UniProt Q02223); assay: Octet sandwich with purified recombinant antibodies: sBCMA-mAb1 captured by B-goat anti-rabbit Fc on SA sensor, irrelevant IgG block, +/- BCMA (Example 2c)
[7] = molecular target: soluble BCMA (sBCMA) (human) (UniProt Q02223); assay: Octet sandwich assay (legend of FIG. 3)
[8] = molecular target: soluble BCMA (sBCMA) (human) (UniProt Q02223); assay: Octet sandwich assay: sBCMA-mAb1 captured, Ther-Ab2 +/- BCMA, then sBCMA-mAb3
[9] = molecular target: soluble BCMA (sBCMA) (human) (UniProt Q02223); assay: Octet sandwich: sBCMA-mAb3 on BCMA held by captured sBCMA-mAb1 and already carrying Ther-Ab2 (Example 2c)
[10] = molecular target: soluble BCMA (sBCMA) (human) (UniProt Q02223); assay: Octet sandwich: B-goat anti-rabbit Fc on SA sensor, sBCMA-mAb1 captured, irrelevant IgG block, Ther-Ab2 or irrelevant bispecific +/- BCMA, then sBCMA-mAb3 (Example 2c)
[11] = molecular target: soluble BCMA (sBCMA) (human) (UniProt Q02223); assay: Octet sandwich: anti-huFc sensor loaded with Ther-Ab2, then BCMA, baseline, then sBCMA-mAb2 (quantified supernatant) as second antibody (Example 2a)

Measured: binding

B1: sBCMA-mAb1 (antibody, V domains shown)
VH: QSLEESGGDLVKPGAFLTLTCTASGFSFSSGYYICWVRQAPGKGLEWIACIYTGSSGSTDYASWAKGRFTISKTSSTTVTLQMTSLTAADTATYFCARDYGHSYWNLWGPGTLVTVSS
VL: DIVMTQTPASVEAAVGGTVTIKCQASEDISSRLAWYQQKPGQPPKLLIGAASTLASGVSSRFKGSRSGTEYTLTISDLECADAATYYCLGDYYVSSYGNAFGGGTEVVVKG
binds: [1] | [2] | [3] | [4] | [5] | [6]

B2: sBCMA-mAb3 (antibody, V domains shown)
VH: QEQLEESGGGLVKPGGTLTLTCKASGMDFSSYYYMCWVRQAPGKGLEWIACIFSDSGGHTAYASWAEGRFTISKTSSTTVTLQMTSLTVADTATYFCARDRRDVVYIRDLWGPGTLVTVSS
VL: ALVMTQTPSPVSAAVGGTVTISCQSSESVYNNNALAWYQQKPGQPPKLLIYGASSLASGVPSRFKGSGSGTQFTLTISDLECDDAATYYCAGYKRYNNDGHAFGGGTEVVVKG
binds: [7] | [8] | [2] | [9] | [5] | [10]

B3: sBCMA-mAb2 (antibody, V domains shown)
VH: QSLEESGGDLVKPGASLTLTCTASGFSFSSSYWICWVRQAPGKGLEWIACIYAGSGDFTYYASWAKGRFTVSKTSSTTVTLQMTSLTAADTATYFCARDAATSYYSHYFTLWGPGTLVTVSS
VL: DVVMTQTPASVSEPVGGTVTIKCQASQSIYSGLAWYQQKPGQPPKLLIYDASDLASGVPSRFSGSGYGTEFTLTISGVQCEDAATYYCQVTHYESGVPLGGGTEVVVEG
binds: [1] | [5] | [11]
